Measurements: US20240066137A1, “NOVEL PROTEIN CONJUGATE, AND USE THEREOF FOR PREVENTING OR TREATING NONALCOHOLIC STEATOHEPATITIS, OBESITY AND DIABETES” (ONEGENE BIOTECHNOLOGY INC., priority 2020, published 2024)
Where two headings read alike, the source gives them in different places. For at least one compound, name, drawing or mass did not settle the structure.

Target: T1, GIPR (GIP acceptor) (Homo sapiens, UniProt P48546)
T1 sequence (P48546 22-466): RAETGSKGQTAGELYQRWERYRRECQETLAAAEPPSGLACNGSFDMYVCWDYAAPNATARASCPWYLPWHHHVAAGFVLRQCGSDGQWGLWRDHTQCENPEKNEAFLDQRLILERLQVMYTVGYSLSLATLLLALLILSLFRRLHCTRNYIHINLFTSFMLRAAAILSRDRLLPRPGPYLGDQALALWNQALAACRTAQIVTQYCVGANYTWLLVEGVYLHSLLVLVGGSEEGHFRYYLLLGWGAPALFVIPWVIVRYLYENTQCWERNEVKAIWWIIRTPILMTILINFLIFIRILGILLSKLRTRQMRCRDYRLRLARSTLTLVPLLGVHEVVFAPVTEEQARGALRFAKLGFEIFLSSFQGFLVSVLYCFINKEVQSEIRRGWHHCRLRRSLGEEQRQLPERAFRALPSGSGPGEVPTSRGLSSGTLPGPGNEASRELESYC
Assay: cAMP accumulation assay, GIP acceptor overexpressing cells
Assay type: cell-based
Details: Test Example 1

CC[C@H](C)[C@H](NC(=O)[C@H](CO)NC(=O)[C@H](Cc1ccc(O)cc1)NC(=O)[C@H](CC(=O)O)NC(=O)[C@H](CO)NC(=O)[C@@H](NC(=O)[C@H](Cc1ccccc1)NC(=O)[C@@H](NC(=O)CNC(=O)[C@H](CCC(=O)O)NC(=O)[C@H](C)NC(=O)[C@@H](N)Cc1ccc(O)cc1)[C@@H](C)O)[C@@H](C)CC)C(=O)N[C@@H](C)C(=O)N[C@@H](CCSC)C(=O)N[C@@H](CC(=O)O)C(=O)N[C@@H](CCCCN)C(=O)N[C@H](C(=O)N[C@@H](Cc1c[nH]cn1)C(=O)N[C@@H](CCC(N)=O)C(=O)N[C@@H](CCC(N)=O)C(=O)N[C@@H](CC(=O)O)C(=O)N[C@@H](Cc1ccccc1)C(=O)N[C@H](C(=O)N[C@@H](CC(N)=O)C(=O)N[C@@H](Cc1c[nH]c2ccccc12)C(=O)N[C@@H](CC(C)C)C(=O)N[C@@H](CC(C)C)C(=O)N[C@@H](C)C(=O)N[C@@H](CCC(N)=O)C(=O)N[C@@H](CCCCN)C(=O)NCC(=O)N[C@@H](CCCCN)C(=O)N[C@@H](CCCCN)C(=O)N[C@@H](CC(N)=O)C(=O)N[C@@H](CC(=O)O)C(=O)N[C@@H](Cc1c[nH]c2ccccc12)C(=O)N[C@@H](CCCCN)C(=O)N[C@@H](Cc1c[nH]cn1)C(=O)N[C@@H](CC(N)=O)C(=O)O)C(C)C)[C@@H](C)CC [GIP(1-39), reference compound]
EC50 (read-out: EC50 GIPR, 1, run 1): 0.0154 nM | EC50 (read-out: EC50 GIPR, 2, run 2): 0.0141 nM | EC50 (read-out: EC50 GIPR, Mean, mean of 2 runs): 0.0148 nM
